How the values were obtained:
SH-SY5Y cells [1] = experiment: Toxicity against SH-SY5Y cell line; type: cell-based, human; settings: 24 h, MTT
SH-SY5Y cells [2] = experiment: Neuroprotection against H2O2-induced oxidative damage in SH-SY5Y cells; type: cell-based, human; settings: 12.5 μmol/L, 24 h pretreatment, then H2O2 650 μM 4 h

In the case of `COc1cc2c(cc1OC)C(=O)C(CC1CCN(Cc3ccccc3)CC1)C2` (stereo not drawn) [DNP, Donepezil], the “survival rate (%)” value (SH-SY5Y cells [1]; 6.25 μmol/L) is reported as 96.14 ± 0.12%, the “survival rate (%)” value (SH-SY5Y cells [1]; 12.5 μmol/L) is reported as 95.21 ± 1.68% and the “survival rate (%), neuroprotective effect against H2O2-induced cell death” value (SH-SY5Y cells [2]) is reported as 57.21 ± 0.54%.

Reference: article PMC10286275 (ACS Omega, 2023)
